Values quoted from earlier work in patent US5443842A, “Oral formulations of ubidecarenone in form of capsules” (Inverni Della Beffa Farmaceutici S.r.l., priority 1993, dated 1995).

## COC1=C(OC)C(=O)C(C/C=C(\C)CC/C=C(\C)CC/C=C(\C)CC/C=C(\C)CC/C=C(\C)CC/C=C(\C)CC/C=C(\C)CC/C=C(\C)CC/C=C(\C)CCC=C(C)C)=C(C)C1=O [Ubidecarenone]
  Solubility in water: practically insoluble in water
